Test results published in publication PMC10105761.
Results are given in words; binding and its absence hold for the method and conditions named. In cells and extracts the contact can be indirect. Some results given as binding are weak or reduced against the parent protein; the word gives no strength. Sequences can lack the tags named with a protein.

Amino acid sequences for entries named in this document (tags omitted).
UniProt P69783: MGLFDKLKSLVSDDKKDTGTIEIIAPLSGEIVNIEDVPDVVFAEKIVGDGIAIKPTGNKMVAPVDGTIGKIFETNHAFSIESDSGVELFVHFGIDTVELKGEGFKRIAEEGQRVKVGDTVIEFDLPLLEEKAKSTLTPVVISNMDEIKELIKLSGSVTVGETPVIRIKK

Molecular target: T1, galactose transporter MglA fused to YFP (E. coli) (UniProt P0AAG8)
T1 sequence: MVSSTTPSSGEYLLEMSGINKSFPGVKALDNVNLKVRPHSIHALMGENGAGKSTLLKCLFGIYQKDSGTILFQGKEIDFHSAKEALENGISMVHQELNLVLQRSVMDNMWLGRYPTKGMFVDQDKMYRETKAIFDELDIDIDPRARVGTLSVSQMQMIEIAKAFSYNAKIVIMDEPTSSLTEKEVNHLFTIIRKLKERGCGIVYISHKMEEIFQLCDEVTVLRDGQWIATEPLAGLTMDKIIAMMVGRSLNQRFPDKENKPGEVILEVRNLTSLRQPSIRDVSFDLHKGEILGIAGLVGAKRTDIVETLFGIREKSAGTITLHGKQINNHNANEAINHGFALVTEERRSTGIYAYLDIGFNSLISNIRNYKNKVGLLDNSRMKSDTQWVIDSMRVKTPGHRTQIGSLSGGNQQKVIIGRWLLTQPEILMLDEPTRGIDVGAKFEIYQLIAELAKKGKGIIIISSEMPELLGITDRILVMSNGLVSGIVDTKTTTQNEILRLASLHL
Assay: FRET or BRET; live E. coli MG1655 cells co-expressing EIIA^Glc-CFP and MglA-YFP, attached to poly-lysine coated slides in a flow-through chamber; YFP/CFP ratio by microscopy, population and single cells; equilibrated in M9 buffer, stimulated with 100 μM glucose (also pyruvate); 22 °C

binding: binds
Substance: EIIA^Glc fused to CFP (from UniProt P69783 1-169)
